Test results reported in PMC12916490 (Molecular Psychiatry, 2025).

Test: Recovery of the microdialysis probes (probe immersed in DOM/DOAM mixture)
Conditions: probe in 1 µg/mL mixture in artificial cerebrospinal fluid, 1 µL/min, 15 min

Row | Structure (SMILES) | Mean (SD) recovery of the microdialysis probes [%]
1 | CCCCCc1cc(OC)c(CC(C)N)cc1OC (centres unmarked) [DOAM, 4-amyl-2,5-dimethoxyamphetamine] | 3.9
2 | COc1cc(CC(C)N)c(OC)cc1C (centres unmarked) [DOM, 4-methyl-2,5-dimethoxyamphetamine] | 14.1
